Results are given in words; binding and its absence hold for the method and conditions named. For some assays here: Sequences can lack the tags named with a protein.
Key:
[1] = biological target: T1, His6-SUMO-GSDMD^Nterm, the N-terminal product of TEV cleavage of GSDMD^TEV (human) (UniProt P57764); test: solubility and orthogonal Ni-affinity chromatography after proteolytic cleavage
T1 sequence: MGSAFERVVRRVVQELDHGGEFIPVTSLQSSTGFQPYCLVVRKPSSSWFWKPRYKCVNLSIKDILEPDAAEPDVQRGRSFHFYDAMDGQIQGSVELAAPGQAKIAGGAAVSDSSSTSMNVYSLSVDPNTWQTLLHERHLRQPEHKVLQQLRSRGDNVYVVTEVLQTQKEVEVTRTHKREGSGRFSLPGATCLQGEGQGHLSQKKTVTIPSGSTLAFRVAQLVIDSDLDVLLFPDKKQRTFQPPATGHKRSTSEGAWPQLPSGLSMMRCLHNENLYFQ

[2] = biological target: human Gasdermin D C-terminal domain (hGSDMD^Cterm), released from GSDMD^TEV by TEV protease (human) (UniProt P57764); test: SEC

B1: human Gasdermin D C-terminal domain (hGSDMD^Cterm), released from GSDMD^TEV by TEV protease (domain or fragment, UniProt P57764 276-484)
chain: SGVPAEGAFTEDFQGLRAEVETISKELELLDRELCQLLLEGLEGVLRDQLALRALEEALEQGQSLGPVEPLDGPAGAVLECLVLSSGMLVPELAIPVVYLLGALTMLSETQHKLLAEALESQTLLGPLELVGSLLEQSAPWQERSTMSLPPGLLGNSWGEGAPAWVLLDECGLELGEDTPHVCWEPQAQGRMCALYASLALLSGLSQEPH
- binding [1]: no binding
- binding [2]: no binding

Reference: publication doi:10.1101/187211
